The values below come from PMC11246429 (2024).

Assay [1] addresses T1, AP2 β2-appendage domain without linker (residues 714–951) (bovine) (UniProt Q08DS7).
T1 sequence: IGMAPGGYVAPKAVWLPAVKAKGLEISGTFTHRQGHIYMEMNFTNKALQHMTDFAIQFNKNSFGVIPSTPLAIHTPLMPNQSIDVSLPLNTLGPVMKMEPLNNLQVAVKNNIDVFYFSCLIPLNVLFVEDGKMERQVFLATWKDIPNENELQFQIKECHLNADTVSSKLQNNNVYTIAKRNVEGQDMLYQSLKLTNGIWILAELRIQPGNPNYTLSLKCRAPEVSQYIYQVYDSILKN
Description: cross-linking; AP180 430–500 and AP2β2 714–951 equimolar (100 μM each) in 50 mM Na-phosphate, 1 mM DSS 15 min at room temperature; Glu-C digest, LC-MS/MS; one sample; both purified.

In assay [2] the target is T1, AP2 β2-appendage domain without linker (residues 714–951) (bovine). In words: NMR titration; 15N, 2H labeled AP2β2 714–951 (200 μM) with 5%, 10%, 20% AP180 430–500; 1H-15N TROSY CSPs, intensity ratios, CPMG; NMR buffer; both purified.
The target in assay [3] is T2, AP2 β2-appendage domain with linker (residues 617–951) (bovine) (UniProt Q08DS7).
T2 sequence: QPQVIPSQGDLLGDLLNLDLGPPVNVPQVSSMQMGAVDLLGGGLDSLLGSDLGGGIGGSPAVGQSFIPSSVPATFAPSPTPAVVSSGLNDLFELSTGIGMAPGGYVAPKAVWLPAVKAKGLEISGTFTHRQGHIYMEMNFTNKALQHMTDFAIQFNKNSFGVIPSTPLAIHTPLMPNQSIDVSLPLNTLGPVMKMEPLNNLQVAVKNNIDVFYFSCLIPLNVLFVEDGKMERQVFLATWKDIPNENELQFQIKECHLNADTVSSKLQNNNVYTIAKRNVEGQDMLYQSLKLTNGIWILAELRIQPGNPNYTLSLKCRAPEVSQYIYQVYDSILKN
In words: NMR titration; competition: 100 μM 15N AP180 399–598 with 10% AP2β2, then unlabeled AP180 470–500 added (450%); HSQC intensities and 15N R1ρ; both purified.

In a further assay the target is AP180 281-500 (rat). Description: NMR titration; 15N R1rho relaxation rates of 100 μM 15N AP180 segments with increasing concentrations of unlabeled AP2β2 (0%, 5%, 15%, 50%); 600 MHz; NMR buffer pH 6, 25 °C; both purified.
Assay [4] addresses AP180 segment 399–598 (rat). In words: NMR titration; competition: 100 μM 15N AP180 399–598 with 10% AP2β2, then unlabeled AP180 470–500 added (450%); HSQC intensities and 15N R1ρ; both purified.
Assay [5] deals with AP180 segment 399–598 (rat). Description: NMR titration; unlabeled AP2β2 (wild type or mutant) added to 100 μM 15N labeled AP180 (IDR or segments); HSQC intensity ratios, CSPs and 15N R1ρ; NMR buffer 50 mM Na-phosphate pH 6, 150 mM NaCl, 2 mM DTT, 25 °C; both purified.
In assay [6] the target is AP180 IDR (residues 281–898 of AP180) (rat). The description is as above.
The target in assay [7] is AP180 segment 540–740 (rat). Described as above.

These are yes or no findings as the source states them, for the method shown. Binding can be weak; no strength is given.

Regarding “AP180 430–500 (extended interaction motif, EIM) (rat) (domain or fragment)”, the binding result in assay [1] and in assay [2] was “binds” in each case.

In the case of “AP180 470–500 (rat) (domain or fragment)”, in assay [3], the binding result was “binds”.

B1: AP2 beta2-appendage domain with linker, AP2β2 617-951 (domain or fragment, UniProt Q08DS7 617-951)
chain: T2 sequence
For the molecule B1, in the assay with AP180 281-500 (rat), the binding result is on record as “binds”.

B2: AP2 β2-appendage domain with linker (residues 617–951) (domain or fragment, UniProt Q08DS7 617-951)
chain: T2 sequence
For the molecule B2, the binding entry is reported as “binds” in assay [4], “binds” in assay [5], “binds” in assay [6] and “binds weakly” in assay [7].
